# Measured values from the supplement of paper PMC8728848.
# Some of the results follow.
# B1: Protein L(B1-B4) (Finegoldia magna), Q51912 (protein)
# chain: KEETPETPETDSEEEVTIKANLIFANGSTQTAEFKGTFEKATSEAYAYADTLKKDNGEYTVDVADKGYTLNIKFAGKEKTPEEPKEEVTIKANLIYADGKTQTAEFKGTFEEATAEAYRYADALKKDNGEYTVDVADKGYTLNIKFAGKEKTPEEPKEEVTIKANLIYADGKTQTAEFKGTFEEATAEAYRYADLLAKENGKYTVDVADKGYTLNIKFAGKEKTPEEPKEEVTIKANLIYADGKTQTAEFKGTFAEATAEAYRYADLLAKENGKYTADLEDGGYTINIRFAG
# What was measured:
# Assay in all cases: glycan array binding signal (z-score within array); higher = stronger binding
# Settings in all cases: glycan notation: IUPAC condensed, linker removed
# [1] = target: GlcNAc(b1-3)Gal(b1-4)GlcNAc(b1-3)Gal(b1-4)GlcNAc(b1-2)Man(a1-3)[GlcNAc(b1-3)Gal(b1-4)GlcNAc(b1-3)Gal(b1-4)GlcNAc(b1-2)Man(a1-6)]Man(b1-4)GlcNAc(b1-4)[Fuc(a1-6)]GlcNAc
# In short: (§1)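 The binding signal is a Z-score computed within each array. Data were drawn from 3228 arrays in the Consortium for Functional Glycomics database, restricted to those with a known protein sequence. Scores were averaged over arrays of the same protein sequence at different concentrations or buffers, and over linkers, and negative values can be taken as non-binding.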
# [2] = target: GlcNAc(b1-3)Gal(b1-4)GlcNAc(b1-3)Gal(b1-4)GlcNAc(b1-2)[GlcNAc(b1-3)Gal(b1-4)GlcNAc(b1-3)Gal(b1-4)GlcNAc(b1-6)]Man(a1-6)[GlcNAc(b1-3)Gal(b1-4)GlcNAc(b1-3)Gal(b1-4)GlcNAc(b1-2)Man(a1-3)]Man(b1-4)GlcNAc(b1-4)[Fuc(a1-6)]GlcNAc
# In short: as §1
# [3] = target: GlcNAc(b1-3)Gal(b1-4)GlcNAc(b1-3)Gal(b1-4)GlcNAc(b1-3)Gal(b1-4)GlcNAc(b1-2)Man(a1-3)[GlcNAc(b1-3)Gal(b1-4)GlcNAc(b1-3)Gal(b1-4)GlcNAc(b1-3)Gal(b1-4)GlcNAc(b1-2)Man(a1-6)]Man(b1-4)GlcNAc(b1-4)GlcNAc
# In short: as §1
# [4] = target: GlcNAc(b1-3)Gal(b1-4)GlcNAc(b1-3)Gal(b1-4)GlcNAc(b1-3)Gal(b1-4)GlcNAc(b1-2)Man(a1-3)[GlcNAc(b1-3)Gal(b1-4)GlcNAc(b1-3)Gal(b1-4)GlcNAc(b1-3)Gal(b1-4)GlcNAc(b1-2)Man(a1-6)]Man(b1-4)GlcNAc(b1-4)[Fuc(a1-6)]GlcNAc
# In short: as §1
# [5] = target: GlcNAc(b1-3)Gal(b1-4)GlcNAc(b1-3)Gal(b1-4)GlcNAc(b1-3)Gal(b1-4)GlcNAc(b1-2)[GlcNAc(b1-3)Gal(b1-4)GlcNAc(b1-3)Gal(b1-4)GlcNAc(b1-3)Gal(b1-4)GlcNAc(b1-6)]Man(a1-6)[GlcNAc(b1-3)Gal(b1-4)GlcNAc(b1-3)Gal(b1-4)GlcNAc(b1-3)Gal(b1-4)GlcNAc(b1-2)Man(a1-3)]Man(b1-4)GlcNAc(b1-4)[Fuc(a1-6)]GlcNAc
# In short: as §1
# [6] = target: GlcNAc(b1-3)Gal(b1-4)GlcNAc(b1-3)Gal(b1-4)GlcNAc(b1-3)Gal(b1-4)GlcNAc(b1-3)Gal(b1-4)GlcNAc(b1-2)Man(a1-3)[GlcNAc(b1-3)Gal(b1-4)GlcNAc(b1-3)Gal(b1-4)GlcNAc(b1-3)Gal(b1-4)GlcNAc(b1-3)Gal(b1-4)GlcNAc(b1-2)Man(a1-6)]Man(b1-4)GlcNAc(b1-4)GlcNAc
# In short: as §1
# [7] = target: GlcNAc(b1-3)Gal(b1-4)GlcNAc(b1-3)Gal(b1-4)GlcNAc(b1-3)Gal(b1-4)GlcNAc(b1-3)Gal(b1-4)GlcNAc(b1-2)Man(a1-3)[GlcNAc(b1-3)Gal(b1-4)GlcNAc(b1-3)Gal(b1-4)GlcNAc(b1-3)Gal(b1-4)GlcNAc(b1-3)Gal(b1-4)GlcNAc(b1-2)Man(a1-6)]Man(b1-4)GlcNAc(b1-4)[Fuc(a1-6)]GlcNAc
# In short: as §1
# [8] = target: GlcNAc(b1-3)Gal(b1-4)GlcNAc(b1-3)Gal(b1-4)GlcNAc(b1-3)Gal(b1-4)GlcNAc(b1-3)Gal(b1-4)GlcNAc(b1-2)[GlcNAc(b1-3)Gal(b1-4)GlcNAc(b1-3)Gal(b1-4)GlcNAc(b1-3)Gal(b1-4)GlcNAc(b1-3)Gal(b1-4)GlcNAc(b1-6)]Man(a1-6)[GlcNAc(b1-3)Gal(b1-4)GlcNAc(b1-3)Gal(b1-4)GlcNAc(b1-3)Gal(b1-4)GlcNAc(b1-3)Gal(b1-4)GlcNAc(b1-2)Man(a1-3)]Man(b1-4)GlcNAc(b1-4)[Fuc(a1-6)]GlcNAc
# In short: as §1
# [9] = target: GlcNAc(b1-3)Gal(b1-4)GlcNAc(b1-3)Gal(b1-4)GlcNAc(b1-3)GalNAc
# In short: as §1
# [10] = target: GlcNAc(b1-3)Gal(b1-4)GlcNAc(b1-3)GalNAc
# In short: as §1
# [11] = target: GlcNAc(b1-3)Gal(b1-4)GlcNAc(b1-3)[GlcNAc(b1-3)Gal(b1-4)GlcNAc(b1-3)]GalNAc
# In short: as §1
# [12] = target: GlcNAc(b1-3)Gal(b1-4)GlcNAc(b1-6)[Gal(b1-3)]GalNAc
# In short: as §1
# [13] = target: GlcNAc(b1-3)Gal(b1-4)GlcNAc(b1-6)[GlcNAc(b1-3)Gal(b1-3)]GalNAc
# In short: as §1
# [14] = target: GlcNAc(b1-3)Gal(b1-4)GlcNAc(b1-6)[GlcNAc(b1-3)]Gal(b1-4)GlcNAc
# In short: as §1
# [15] = target: GlcNAc(b1-3)GalNAc
# In short: as §1
# [16] = target: GlcNAc(b1-3)Man
# In short: as §1
# [17] = target: GlcNAc(b1-3)[GlcNAc(b1-4)][GlcNAc(b1-6)]GlcNAc
# In short: as §1
# [18] = target: GlcNAc(b1-3)[GlcNAc(b1-6)]Gal(b1-4)GlcNAc
# In short: as §1
# [19] = target: GlcNAc(b1-3)[GlcNAc(b1-6)]GalNAc
# In short: as §1
# [20] = target: GlcNAc(b1-4)Gal(b1-4)GlcNAc
# In short: as §1
# [21] = target: GlcNAc(b1-4)GlcNAc
# In short: as §1
# [22] = target: GlcNAc(b1-4)GlcNAc(b1-4)GlcNAc
# In short: as §1
# [23] = target: GlcNAc(b1-4)GlcNAc(b1-4)GlcNAc(b1-4)GlcNAc(b1-4)GlcNAc
# In short: as §1
# [24] = target: GlcNAc(b1-4)GlcNAc(b1-4)GlcNAc(b1-4)GlcNAc(b1-4)GlcNAc(b1-4)GlcNAc
# In short: as §1
# [25] = target: GlcNAc(b1-4)[GlcNAc(b1-6)]GalNAc
# In short: as §1
# [26] = target: GlcNAc(b1-6)Gal(b1-4)GlcNAc
# In short: as §1
# [27] = target: GlcNAc(b1-6)GalNAc
# In short: as §1
# [28] = target: GlcNAc6S(b1-3)Gal(b1-4)GlcNAc
# In short: as §1
# [29] = target: Kdn(a2-3)Gal(b1-3)GalNAc
# In short: as §1
# [30] = target: Kdn(a2-3)Gal(b1-3)GlcNAc
# In short: as §1
# [31] = target: Kdn(a2-3)Gal(b1-4)Glc
# In short: as §1
# [32] = target: Kdn(a2-3)Gal(b1-4)GlcNAc
# In short: as §1
# [33] = target: Kdn(a2-3)Gal(b1-4)[Fuc(a1-3)]GlcNAc
# In short: as §1
# [34] = target: Kdn(a2-6)Gal(b1-4)GlcNAc
# In short: as §1
# [35] = target: Man(a1-2)Man(a1-2)Man(a1-3)Man
# In short: as §1
# [36] = target: Man(a1-2)Man(a1-2)Man(a1-6)[Man(a1-3)]Man
# In short: as §1
# [37] = target: Man(a1-2)Man(a1-3)Man
# In short: as §1
# [38] = target: Man(a1-2)Man(a1-3)[Man(a1-2)Man(a1-6)]Man
# In short: as §1
binder,measurement,setting,value
B1,glycan array binding signal (z-score),[1],3.07
same,glycan array binding signal (z-score),[2],1.35
same,glycan array binding signal (z-score),[3],1.06
same,glycan array binding signal (z-score),[4],1.7
same,glycan array binding signal (z-score),[5],1.29
same,glycan array binding signal (z-score),[6],0.719
same,glycan array binding signal (z-score),[7],0.178
same,glycan array binding signal (z-score),[8],1.06
same,glycan array binding signal (z-score),[9],-0.791
same,glycan array binding signal (z-score),[10],-0.554
same,glycan array binding signal (z-score),[11],0.344
same,glycan array binding signal (z-score),[12],-0.704
same,glycan array binding signal (z-score),[13],-0.452
same,glycan array binding signal (z-score),[14],-0.81
same,glycan array binding signal (z-score),[15],-0.218
same,glycan array binding signal (z-score),[16],0.083
same,glycan array binding signal (z-score),[17],-0.694
same,glycan array binding signal (z-score),[18],-0.571
same,glycan array binding signal (z-score),[19],-0.606
same,glycan array binding signal (z-score),[20],-1.08
same,glycan array binding signal (z-score),[21],-0.501
same,glycan array binding signal (z-score),[22],-0.615
same,glycan array binding signal (z-score),[23],-0.747
same,glycan array binding signal (z-score),[24],-0.953
same,glycan array binding signal (z-score),[25],-0.71
same,glycan array binding signal (z-score),[26],-0.897
same,glycan array binding signal (z-score),[27],-0.557
same,glycan array binding signal (z-score),[28],-0.336
same,glycan array binding signal (z-score),[29],2.17
same,glycan array binding signal (z-score),[30],0.708
same,glycan array binding signal (z-score),[31],-0.246
same,glycan array binding signal (z-score),[32],0.668
same,glycan array binding signal (z-score),[33],2.26
same,glycan array binding signal (z-score),[34],-0.664
same,glycan array binding signal (z-score),[35],-0.464
same,glycan array binding signal (z-score),[36],0.146
same,glycan array binding signal (z-score),[37],0.213
same,glycan array binding signal (z-score),[38],-0.872

# Laid out differently: results already given
binder	measurement	setting	value
B1	glycan array binding signal (z-score)	[8]	1.06
same	glycan array binding signal (z-score)	[15]	-0.218
